Measured values as given in the supplement of paper PMC5949888.
Most values lie at the floor of the assay. Slopes are relative: functional sequences can read slightly below zero.

The substances below were run on Saccharomyces cerevisiae PS128 hsf1 delta, HSF1(1-493) fusion (assay: growth estimate (transactivation domain function in HSF1 fusion, heat-shock survival) (a.u. (slope of normalised read count over time)); higher = stronger growth at 37°C, i.e. more transactivation activity). Details: library: random library.

Substance | growth estimate
KESCLTAHARAL | < -0.25
CAPATLFHWEPSYRSYTR | < -0.25
EQREG | < -0.25
DNDKTGRAHPLRSRP | < -0.25
VCTRYVRGGSKHQLQHHRSN | < -0.25
VVQVDHRFEHGAGSRGPESR | < -0.25
SWVTWGGLTCGRPI | < -0.25
NVSGCNSFDDSNPRSVRLRV | < -0.25
AKHYSVSSTRNGEAESEDEP | < -0.25
LQRRRVAVRIYIVMTWLVWM | < -0.25
TFHGGVLQNLVRLVISQCPS | < -0.25
WTTPGDGYEPCGGDVTHWKV | < -0.25
VTKSQPHV | < -0.25
GRILRYAIMVSRGNLSSKRP | < -0.25
RYPTGH | < -0.25
GDITGFRTAFKEREDARP | -0.158
DSMVYHPDSTSELQISSDYT | < -0.25
DQGMSWYIWSHKRMAC | < -0.25
ILESGRRLGNSRVAVPTHVN | < -0.25
LFCAVAQ | < -0.25
TRY | < -0.25
DPGDFWIRGSRSHFTGANVP | < -0.25
SVTQVIPCPGRDIPRACHWN | < -0.25
RTGLVDVVEV | < -0.25

5 entries from above, with tabs:
Substance	growth estimate
EQREG	< -0.25
WTTPGDGYEPCGGDVTHWKV	< -0.25
DSMVYHPDSTSELQISSDYT	< -0.25
ILESGRRLGNSRVAVPTHVN	< -0.25
RTGLVDVVEV	< -0.25

More records follow:

Substance | growth estimate
FDLNIAMYSRAADRLRGIRQ | < -0.25
TLGHRSPAATNR | < -0.25
GAFILQPYRGV | -0.205
CAQNSNGTPLTDLGRTARQL | < -0.25
NIP | < -0.25
SENVPKRKGLTGLCHSGGWV | < -0.25
GCGLGIRR | < -0.25
YEQQCIHRLVAEMYLALLAR | < -0.25
SSCRLAFGHARCMVG | < -0.25
IAGLNVKQIL | < -0.25
RERAKGRVKPGS | -0.243
QSGSAKA | < -0.25
DASFSESLSRVSLQ | < -0.25
NCRHEPS | < -0.25
RFMRNTVSFTHAIALSNSVV | < -0.25
EQAVWC | < -0.25
ILFRFSAHYIALVPGVVRAL | < -0.25
RWLRFFSRALSPD | < -0.25
FRKRSISR | < -0.25
RTQQVPDFGNSAARIHGVPA | < -0.25
VRSLLPAITTRDFVEEPASP | -0.248
TSR | 0.183
YYRDLRPRCGPRLINSVALP | < -0.25
LTRVPGEVRHKPSRAESSWY | < -0.25

Substance | growth estimate
LGYALIGLPRS | < -0.25
DSINFHYILSYTRVWPLILG | < -0.25
YPNAFRVISSPVTKWTVYVG | < -0.25
VGQVFRKQLAESRRKQRNNK | < -0.25
TSRNCPARVHKRRKY | < -0.25
LTVRHGSLAVRRLNAIAALT | < -0.25
RMHTRHALLDVCW | < -0.25
LRGQSDCRFTRVKVLQRQLF | < -0.25
GRRHVVGRRSLLKAKLTAPY | < -0.25
CGG | < -0.25
VNAQS | < -0.25
KRAAGGTRPSTRVPDSK | < -0.25
CRVMRGVSTAVRSRYSCLVS | < -0.25
PYSG | < -0.25
RTRRESGHLEAQSPRSSHYS | < -0.25
AFTAWTRCGGGTVALLLSRR | < -0.25
GDPKSTKSGGHGEMVSSSAH | < -0.25
VQAYWFKVHRYSGYRGLDAI | < -0.25
AQGQPVKQPRCIRGPDGRCA | < -0.25
QCRAPGFATRHLLTVLHLNL | < -0.25
SVINVSTWSRKW | < -0.25
WGGAGHCDWNFQSISGA | -0.162
HAEQGANQTPASG | < -0.25
ESRAQSTGFTRGISCGA | < -0.25

Substance | growth estimate
TKFLCFGSTKRYTYSTTIKA | -0.241
ILDISYRFVKR | < -0.25
VHACSFVGPFKTVRFHEAGG | < -0.25
SAQGIRGSVVWRIAVRHSLA | < -0.25
RHQYVDWHRCVKTCPSIRHA | < -0.25
GSPVLGKPGRQGGQIDNSLN | < -0.25
HSRLFLIGTLFGRT | < -0.25
SAPAGLLSIRKSQNGILQST | < -0.25
GAPNTLSRSMCIRGFIDPLN | < -0.25
IPDSIN | < -0.25
HRICTDPQLGVHHG | < -0.25
TMIHLYFVVSQKR | < -0.25
GSRKRGPLS | < -0.25
LGWGYTMYSHVCWPVERNRP | < -0.25
FPQK | < -0.25
VISDFRCRDGS | < -0.25
ITISRSSQFALNTRHRQIPA | < -0.25
IARPLEHYRELGGGIRIFEQ | < -0.25
TPEGFQLSTGLYRACPCDWC | < -0.25
TCIEIGHKNGQSMRKIALVS | -0.246
FVTATPEVRKRLLG | < -0.25
GNGRSYGPLTIQAL | < -0.25
HVNDNITP | < -0.25
TDCRLSSIWQGAEASRIPQL | < -0.25

Substance | growth estimate
CLPIIRRMSQLERVYPVSMA | < -0.25
AQLTSVAGEYYSTSGHHCER | < -0.25
GQGTDG | < -0.25
LTLGMQ | < -0.25
RGCLIATYVSRYVYWK | < -0.25
DPAGGL | < -0.25
RYITWMTSRGRESTTVRMAT | < -0.25
SGSSRNTSL | < -0.25
PVTRVRVRLLLDQPRYRPDP | < -0.25
FLLWLTARSCNCLSKSRVND | < -0.25
PNRPKAPYLEGDHAPIDPLG | < -0.25
RDRTAPLDSIGVRPGGLTVA | < -0.25
LQSSAGLEHTLLRGFRCEVW | < -0.25
IPPANRPTPDTLYVLVQPRF | < -0.25
FAYVRVRLTRP | < -0.25
GVVSLLRVCACGGGSRVKET | < -0.25
YRVPA | < -0.25
PLKWRRVSAAVRFHIESPVN | < -0.25
GPGLDSY | < -0.25
SNFHTLPGKRKASLSKTHAR | < -0.25
ALKPGRLCSTRLGHSGPPLR | < -0.25
ELTSKHSRCALNKLASRGSR | 0.0328
QVLKWR | < -0.25
RAQQQCAWCVYERKIICKAR | < -0.25

Part of the list above, in markdown.

| Substance | growth estimate |
| --- | --- |
| SNFHTLPGKRKASLSKTHAR | < -0.25 |
| ALKPGRLCSTRLGHSGPPLR | < -0.25 |
| ELTSKHSRCALNKLASRGSR | 0.0328 |

The results go on.

Substance | growth estimate
GCGGPMICGETSWRRSQIMR | < -0.25
RRSHTRCLYLVSELWMDRAS | < -0.25
KGQPRNAGVLHYV | < -0.25
LRDGLAADWSVAVSLTYTGI | < -0.25
RFGQCLIGHRGIFAGGPIIA | < -0.25
RWRSYVGCHDSTRGLIKKSV | < -0.25
GSRTRLLKFLTRCNSKATSR | < -0.25
IGLH | < -0.25
ILKLVRASQSPASAAHGFRV | < -0.25
GFNRQVPCCATV | < -0.25
YLRDPGRDH | < -0.25
DLQGYIQAFLALSCRLSFCL | < -0.25
VAWKVSR | < -0.25
GAPAQPGVLASIGVSQNFLI | < -0.25
RPGASQCPTLPHAVRRYVPS | < -0.25
MFN | -0.229
LLFNIARRTYRSFWRSELRQ | < -0.25
CLGRAWQSQSREMERF | < -0.25
VIDGVRPSTVSESVRFLRFS | < -0.25
YDGALWGHSLSHYRQCSPV | < -0.25
PENDNILLTGGLKSAVSHPR | < -0.25
